From patent publication US20210363245A1 (US Dept. of Health and Human Services, published 2021)

Target: T1, CD27 (human, UniProt P26842 20-260)
T1 construct: whole, on cells
T1 sequence (looked up): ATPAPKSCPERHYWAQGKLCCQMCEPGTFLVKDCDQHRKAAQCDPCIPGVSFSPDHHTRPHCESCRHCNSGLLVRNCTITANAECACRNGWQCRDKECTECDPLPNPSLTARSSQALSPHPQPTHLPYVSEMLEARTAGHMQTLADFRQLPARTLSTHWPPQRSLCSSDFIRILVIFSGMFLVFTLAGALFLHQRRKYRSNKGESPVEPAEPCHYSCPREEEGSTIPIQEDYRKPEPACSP
Assay: labeled CAR T cells screened on HEK293 cells expressing 5,647 human plasma membrane proteins (Retrogenix)
Protocol: HEK293 cells were transfected to express 5,647 human plasma membrane proteins. This allowed for screening against these human proteins for reactivity with antibody-based reagents (screening was performed by a third party, Retrogenix™). Untransduced human T cells and T cells from the same donor that expressed Hu20-CD8BBZ were used. The Hu20-CD8BBZ T cells were labeled and then used to screen the 5,647 human plasma membrane proteins.

binding result: binds
B1: Hu20-CD8BBZ (other)
chain: DIVMTQTPHSSPVTLGQPASISCRSSQSLVSRDGNTYLSWLQQRPGQPPRLLIYKISNRFSGVPNRFSGSGAGTDFTLKISRVKAEDVGVYYCMQATQFPLTFGQGTRLEIKGGGGSGGGGSGGGGSEVQLVQSGAEVKKPGESLKISCKGSGYSFTSYWIGWVRQMPGKGLEWMGIIYPGDSDTRYSPSFQGQVTISADKSISTAYLQWSSLKASDTAMYYCARQGDFWSGYGGMDVWGQGTTVTVSSFVPVFLPAKPTTTPAPRPPTPAPTIASQPLSLRPEACRPAAGGAVHTRGLDFACDIYIWAPLAGTCGVLLLSLVITLYCNHRNKRGRKKLLYIFKQPFMRPVQTTQEEDGCSCRFPEEEEGGCELRVKFSRSADAPAYQQGQNQLYNELNLGRREEYDVLDKRRGRDPEMGGKPRRKNPQEGLYNELQKDKMAEAYSEIGMKGERRRGKGHDGLYQGLSTATKDTYDALHMQALPPR
notes: CAR on transduced human T cells; also called 2.1.2-CD8BBZ; 2.1.2BB
